The text below walks through data of the supplement of paper PMC6411743.

By UniProt entry, the sequences of proteins in these tests, tags left out. Where a name states a change or a piece, a line headed by the entry shows the natural chain unless it says otherwise.
UniProt Q9BUI4: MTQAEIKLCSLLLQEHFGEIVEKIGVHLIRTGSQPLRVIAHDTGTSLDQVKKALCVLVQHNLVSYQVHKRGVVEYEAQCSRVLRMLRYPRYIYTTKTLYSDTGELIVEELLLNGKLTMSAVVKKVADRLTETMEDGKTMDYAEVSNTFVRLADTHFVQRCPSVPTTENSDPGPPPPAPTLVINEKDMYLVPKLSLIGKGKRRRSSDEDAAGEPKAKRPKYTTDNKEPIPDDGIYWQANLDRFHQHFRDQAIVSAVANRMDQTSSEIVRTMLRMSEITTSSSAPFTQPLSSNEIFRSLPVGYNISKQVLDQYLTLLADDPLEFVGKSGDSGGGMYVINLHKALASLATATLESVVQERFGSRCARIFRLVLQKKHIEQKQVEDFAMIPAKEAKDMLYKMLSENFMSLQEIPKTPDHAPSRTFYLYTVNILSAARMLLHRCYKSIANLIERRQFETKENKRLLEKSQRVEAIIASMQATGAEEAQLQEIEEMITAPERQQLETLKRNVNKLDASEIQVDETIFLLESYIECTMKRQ
UniProt P13987: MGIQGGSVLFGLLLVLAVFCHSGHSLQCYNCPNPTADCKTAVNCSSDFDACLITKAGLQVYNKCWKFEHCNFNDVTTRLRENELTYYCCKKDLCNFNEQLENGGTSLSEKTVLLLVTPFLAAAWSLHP
UniProt O75251, whole entry: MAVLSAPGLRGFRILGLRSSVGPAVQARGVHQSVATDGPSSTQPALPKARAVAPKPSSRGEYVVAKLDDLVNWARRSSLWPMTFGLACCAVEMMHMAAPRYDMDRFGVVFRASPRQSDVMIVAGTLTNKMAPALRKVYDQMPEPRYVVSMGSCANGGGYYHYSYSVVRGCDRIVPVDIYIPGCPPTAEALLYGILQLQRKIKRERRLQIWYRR
UniProt P23528, whole entry: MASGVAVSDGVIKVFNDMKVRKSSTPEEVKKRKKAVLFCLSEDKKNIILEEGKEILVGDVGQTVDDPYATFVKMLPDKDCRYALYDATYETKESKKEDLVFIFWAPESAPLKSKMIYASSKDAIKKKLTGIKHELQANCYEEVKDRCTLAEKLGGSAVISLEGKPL
UniProt O43795: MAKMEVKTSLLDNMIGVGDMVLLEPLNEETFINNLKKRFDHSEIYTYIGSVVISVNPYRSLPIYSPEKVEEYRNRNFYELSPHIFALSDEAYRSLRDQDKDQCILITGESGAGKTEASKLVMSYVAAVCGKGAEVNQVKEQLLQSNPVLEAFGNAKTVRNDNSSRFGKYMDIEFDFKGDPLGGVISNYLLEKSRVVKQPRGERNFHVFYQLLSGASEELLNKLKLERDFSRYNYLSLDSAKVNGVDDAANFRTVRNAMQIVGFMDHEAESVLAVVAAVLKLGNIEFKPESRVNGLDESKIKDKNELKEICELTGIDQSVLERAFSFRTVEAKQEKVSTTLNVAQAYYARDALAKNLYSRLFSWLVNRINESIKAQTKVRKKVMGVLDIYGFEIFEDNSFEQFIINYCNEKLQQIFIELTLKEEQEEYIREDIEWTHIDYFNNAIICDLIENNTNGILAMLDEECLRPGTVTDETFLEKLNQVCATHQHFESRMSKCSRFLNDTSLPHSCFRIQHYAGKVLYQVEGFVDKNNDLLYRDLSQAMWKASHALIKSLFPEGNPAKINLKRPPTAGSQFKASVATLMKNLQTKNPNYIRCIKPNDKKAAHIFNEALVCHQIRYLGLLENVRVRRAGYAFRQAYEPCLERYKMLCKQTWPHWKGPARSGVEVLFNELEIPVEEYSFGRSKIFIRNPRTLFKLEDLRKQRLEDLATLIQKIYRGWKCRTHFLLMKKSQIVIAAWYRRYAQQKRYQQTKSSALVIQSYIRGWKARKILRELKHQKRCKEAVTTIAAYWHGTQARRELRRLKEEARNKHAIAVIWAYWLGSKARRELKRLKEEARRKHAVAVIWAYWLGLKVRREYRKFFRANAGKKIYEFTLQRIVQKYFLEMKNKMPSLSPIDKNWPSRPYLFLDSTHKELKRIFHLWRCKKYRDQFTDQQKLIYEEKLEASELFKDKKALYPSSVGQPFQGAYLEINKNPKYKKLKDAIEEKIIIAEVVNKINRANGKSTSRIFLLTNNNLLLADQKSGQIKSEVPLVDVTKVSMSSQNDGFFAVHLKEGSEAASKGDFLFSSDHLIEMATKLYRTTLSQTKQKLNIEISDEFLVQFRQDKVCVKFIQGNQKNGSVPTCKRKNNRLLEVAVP
UniProt Q9NZJ0: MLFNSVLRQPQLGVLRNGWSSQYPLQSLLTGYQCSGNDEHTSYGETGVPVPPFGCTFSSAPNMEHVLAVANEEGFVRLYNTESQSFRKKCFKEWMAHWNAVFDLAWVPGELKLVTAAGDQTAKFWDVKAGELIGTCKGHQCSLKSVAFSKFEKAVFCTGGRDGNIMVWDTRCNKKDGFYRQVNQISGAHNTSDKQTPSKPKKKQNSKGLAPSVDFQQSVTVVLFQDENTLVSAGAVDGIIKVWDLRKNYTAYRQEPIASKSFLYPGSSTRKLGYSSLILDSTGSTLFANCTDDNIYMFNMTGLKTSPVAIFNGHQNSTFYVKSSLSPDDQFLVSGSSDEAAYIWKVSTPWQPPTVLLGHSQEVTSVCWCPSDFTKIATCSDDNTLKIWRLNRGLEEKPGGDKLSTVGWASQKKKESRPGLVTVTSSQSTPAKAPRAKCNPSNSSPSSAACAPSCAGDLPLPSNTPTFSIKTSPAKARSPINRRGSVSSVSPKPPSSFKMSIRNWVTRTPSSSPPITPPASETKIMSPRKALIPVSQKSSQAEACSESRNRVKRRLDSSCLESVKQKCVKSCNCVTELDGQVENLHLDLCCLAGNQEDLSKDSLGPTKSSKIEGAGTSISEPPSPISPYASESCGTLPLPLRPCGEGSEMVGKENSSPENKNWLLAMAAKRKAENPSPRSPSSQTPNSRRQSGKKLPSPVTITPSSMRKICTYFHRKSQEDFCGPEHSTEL
UniProt O75431: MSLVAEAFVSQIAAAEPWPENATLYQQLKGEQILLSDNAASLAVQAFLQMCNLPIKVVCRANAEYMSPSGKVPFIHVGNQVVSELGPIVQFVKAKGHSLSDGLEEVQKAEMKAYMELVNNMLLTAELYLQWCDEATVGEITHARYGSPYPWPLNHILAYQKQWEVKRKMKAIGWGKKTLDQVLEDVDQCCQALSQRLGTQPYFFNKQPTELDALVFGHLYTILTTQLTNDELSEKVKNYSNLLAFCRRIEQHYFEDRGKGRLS
UniProt Q9UQV4: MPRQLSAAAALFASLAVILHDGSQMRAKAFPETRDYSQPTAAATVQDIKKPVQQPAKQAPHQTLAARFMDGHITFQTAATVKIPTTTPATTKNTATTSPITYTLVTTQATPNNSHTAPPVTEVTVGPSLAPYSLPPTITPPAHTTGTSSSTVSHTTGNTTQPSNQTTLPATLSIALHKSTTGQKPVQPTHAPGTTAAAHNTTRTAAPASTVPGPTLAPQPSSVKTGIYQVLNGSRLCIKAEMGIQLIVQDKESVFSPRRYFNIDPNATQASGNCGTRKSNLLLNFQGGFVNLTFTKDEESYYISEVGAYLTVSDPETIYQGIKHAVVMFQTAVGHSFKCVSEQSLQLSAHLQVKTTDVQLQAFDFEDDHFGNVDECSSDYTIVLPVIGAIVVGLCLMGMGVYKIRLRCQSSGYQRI
UniProt Q9UJ41, whole entry: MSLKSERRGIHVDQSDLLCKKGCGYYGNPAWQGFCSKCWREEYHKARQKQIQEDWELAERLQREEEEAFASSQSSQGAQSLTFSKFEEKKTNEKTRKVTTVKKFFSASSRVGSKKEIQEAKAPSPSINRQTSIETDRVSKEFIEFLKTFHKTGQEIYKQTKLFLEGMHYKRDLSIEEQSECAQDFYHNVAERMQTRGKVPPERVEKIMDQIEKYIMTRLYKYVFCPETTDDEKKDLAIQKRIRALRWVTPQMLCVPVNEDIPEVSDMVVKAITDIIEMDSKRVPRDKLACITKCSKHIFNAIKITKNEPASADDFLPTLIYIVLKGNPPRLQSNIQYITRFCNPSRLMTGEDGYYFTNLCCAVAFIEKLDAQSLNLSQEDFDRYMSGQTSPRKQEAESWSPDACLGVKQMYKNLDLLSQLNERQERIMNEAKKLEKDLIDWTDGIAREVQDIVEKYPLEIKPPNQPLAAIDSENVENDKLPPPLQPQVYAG
UniProt P08133: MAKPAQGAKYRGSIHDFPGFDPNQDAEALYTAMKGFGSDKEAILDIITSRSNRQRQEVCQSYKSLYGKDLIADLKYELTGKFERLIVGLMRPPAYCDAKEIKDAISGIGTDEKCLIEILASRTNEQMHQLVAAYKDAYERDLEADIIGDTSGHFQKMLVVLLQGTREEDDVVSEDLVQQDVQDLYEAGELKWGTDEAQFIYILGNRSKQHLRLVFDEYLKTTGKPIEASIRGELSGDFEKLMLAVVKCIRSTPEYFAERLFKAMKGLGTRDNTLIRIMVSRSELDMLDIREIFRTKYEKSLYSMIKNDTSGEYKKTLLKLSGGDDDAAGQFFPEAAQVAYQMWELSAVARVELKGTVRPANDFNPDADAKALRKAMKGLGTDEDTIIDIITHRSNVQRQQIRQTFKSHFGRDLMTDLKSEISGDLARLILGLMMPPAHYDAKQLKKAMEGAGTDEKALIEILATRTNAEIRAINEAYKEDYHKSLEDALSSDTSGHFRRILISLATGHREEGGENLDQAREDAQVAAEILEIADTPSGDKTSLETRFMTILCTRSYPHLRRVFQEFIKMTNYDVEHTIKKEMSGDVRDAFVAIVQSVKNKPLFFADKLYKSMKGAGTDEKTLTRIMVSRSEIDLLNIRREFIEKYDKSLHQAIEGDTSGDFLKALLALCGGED

± gives the standard deviation of the averaged measurements. This is a selection; strong and weak results do not stand in their true shares. Most entries show no effect beyond the scatter of the controls.

Compound in this experiment: Nc1ncnc2c1ncn2[C@@H]1O[C@H](COP(=O)(O)OP(=O)(O)NP(=O)(O)O)[C@@H](O)[C@H]1O [adenylyl imidodiphosphate]
Description: NP40-soluble protein abundance relative to vehicle (solubility fold change) (ratio); higher = more soluble protein in presence of AMP-PNP. A digest of the protocol: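 Values are fold changes against the detergent-processed vehicle, based on vsn-normalised intensities. Jurkat crude lysate was treated at eight concentrations from 0.1 to 10 mM (10 min at room temperature, then 3 min at 37 °C), solubilised with 0.8% NP40 and benzonase, ultracentrifuged and analysed by TMT-labelled LC-MS/MS over three independent experiments.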

“E9PHH9 and related entries (UniProt Q9BUI4)”: the NP40-soluble protein abundance reads like this: (concentration: 0.1mM) 1.01 ± 0.022; (concentration: 0.5mM) 0.999 ± 0.034.
In the case of “E9PNW4 and related entries (UniProt P13987)”, the NP40-soluble protein abundance runs as follows: (concentration: 0.1mM) 1.01 ± 0.051; (concentration: 0.5mM) 1.06 ± 0.056.
Consider “F5GXJ1 and related entries (UniProt O75251)”, for which the NP40-soluble protein abundance (concentration: 0.1mM) stood at 1.03 ± 0.038 and the NP40-soluble protein abundance (concentration: 0.5mM) worked out at 0.991 ± 0.089.
Regarding “E9PP50 and related entries (UniProt P23528)”, the NP40-soluble protein abundance runs as follows: (concentration: 0.1mM) 0.993 ± 0.023; (concentration: 0.5mM) 0.993 ± 0.02.
Take “E9PDF6 and related entries (UniProt O43795)”: the NP40-soluble protein abundance (concentration: 0.1mM) came out at 1.55 ± 0.26 and the NP40-soluble protein abundance (concentration: 0.5mM) was determined as 1.97 ± 0.37.
Turning to “F5GZ90 and related entries (UniProt Q9NZJ0)”, the NP40-soluble protein abundance (concentration: 0.1mM) turned out to be 0.989 ± 0.029 and the NP40-soluble protein abundance (concentration: 0.5mM) stood at 0.959 ± 0.035.
The like results for “F8WE26 and related entries (UniProt O75431)” were, in that order, 1.01 ± 0.014 and 0.997 ± 0.051.
For the target “E7ETP9 and related entries (UniProt Q9UQV4)”, the NP40-soluble protein abundance turned out to be 0.99 ± 0.021 (concentration: 0.1mM) and 0.98 ± 0.025 (concentration: 0.5mM).
As for “E9PFK9 and related entries (UniProt Q9UJ41)”, the NP40-soluble protein abundance reads like this: (concentration: 0.1mM) 0.979 ± 0.049; (concentration: 0.5mM) 1.01 ± 0.077.
“E5RK69 and related entries (UniProt P08133)”: the NP40-soluble protein abundance worked out at 1 ± 0.02 (concentration: 0.1mM) and 1.01 ± 0.039 (concentration: 0.5mM).
